These are yes or no findings as the source states them, for the method shown. In cells and extracts the contact can be indirect. A result given as binding can be weak or reduced; the word gives no strength.
Target: Piezo1 (mouse (endogenous in bone marrow-derived pre-OCs)) (UniProt E2JF22)
Test: co-IP; lysate of pre-OCs (RIPA buffer with protease inhibitors), stimulated with Yoda1 for 30 min; anti-Piezo1 antibody overnight at 4°C, Protein A/G magnetic beads, washed with TBST; blot with anti-PP2A

Sequences of proteins named here, by UniProt entry; tags and fusion partners are left off. A change or cut given only in a name is not applied to a line headed by its entry.
UniProt E2JF22: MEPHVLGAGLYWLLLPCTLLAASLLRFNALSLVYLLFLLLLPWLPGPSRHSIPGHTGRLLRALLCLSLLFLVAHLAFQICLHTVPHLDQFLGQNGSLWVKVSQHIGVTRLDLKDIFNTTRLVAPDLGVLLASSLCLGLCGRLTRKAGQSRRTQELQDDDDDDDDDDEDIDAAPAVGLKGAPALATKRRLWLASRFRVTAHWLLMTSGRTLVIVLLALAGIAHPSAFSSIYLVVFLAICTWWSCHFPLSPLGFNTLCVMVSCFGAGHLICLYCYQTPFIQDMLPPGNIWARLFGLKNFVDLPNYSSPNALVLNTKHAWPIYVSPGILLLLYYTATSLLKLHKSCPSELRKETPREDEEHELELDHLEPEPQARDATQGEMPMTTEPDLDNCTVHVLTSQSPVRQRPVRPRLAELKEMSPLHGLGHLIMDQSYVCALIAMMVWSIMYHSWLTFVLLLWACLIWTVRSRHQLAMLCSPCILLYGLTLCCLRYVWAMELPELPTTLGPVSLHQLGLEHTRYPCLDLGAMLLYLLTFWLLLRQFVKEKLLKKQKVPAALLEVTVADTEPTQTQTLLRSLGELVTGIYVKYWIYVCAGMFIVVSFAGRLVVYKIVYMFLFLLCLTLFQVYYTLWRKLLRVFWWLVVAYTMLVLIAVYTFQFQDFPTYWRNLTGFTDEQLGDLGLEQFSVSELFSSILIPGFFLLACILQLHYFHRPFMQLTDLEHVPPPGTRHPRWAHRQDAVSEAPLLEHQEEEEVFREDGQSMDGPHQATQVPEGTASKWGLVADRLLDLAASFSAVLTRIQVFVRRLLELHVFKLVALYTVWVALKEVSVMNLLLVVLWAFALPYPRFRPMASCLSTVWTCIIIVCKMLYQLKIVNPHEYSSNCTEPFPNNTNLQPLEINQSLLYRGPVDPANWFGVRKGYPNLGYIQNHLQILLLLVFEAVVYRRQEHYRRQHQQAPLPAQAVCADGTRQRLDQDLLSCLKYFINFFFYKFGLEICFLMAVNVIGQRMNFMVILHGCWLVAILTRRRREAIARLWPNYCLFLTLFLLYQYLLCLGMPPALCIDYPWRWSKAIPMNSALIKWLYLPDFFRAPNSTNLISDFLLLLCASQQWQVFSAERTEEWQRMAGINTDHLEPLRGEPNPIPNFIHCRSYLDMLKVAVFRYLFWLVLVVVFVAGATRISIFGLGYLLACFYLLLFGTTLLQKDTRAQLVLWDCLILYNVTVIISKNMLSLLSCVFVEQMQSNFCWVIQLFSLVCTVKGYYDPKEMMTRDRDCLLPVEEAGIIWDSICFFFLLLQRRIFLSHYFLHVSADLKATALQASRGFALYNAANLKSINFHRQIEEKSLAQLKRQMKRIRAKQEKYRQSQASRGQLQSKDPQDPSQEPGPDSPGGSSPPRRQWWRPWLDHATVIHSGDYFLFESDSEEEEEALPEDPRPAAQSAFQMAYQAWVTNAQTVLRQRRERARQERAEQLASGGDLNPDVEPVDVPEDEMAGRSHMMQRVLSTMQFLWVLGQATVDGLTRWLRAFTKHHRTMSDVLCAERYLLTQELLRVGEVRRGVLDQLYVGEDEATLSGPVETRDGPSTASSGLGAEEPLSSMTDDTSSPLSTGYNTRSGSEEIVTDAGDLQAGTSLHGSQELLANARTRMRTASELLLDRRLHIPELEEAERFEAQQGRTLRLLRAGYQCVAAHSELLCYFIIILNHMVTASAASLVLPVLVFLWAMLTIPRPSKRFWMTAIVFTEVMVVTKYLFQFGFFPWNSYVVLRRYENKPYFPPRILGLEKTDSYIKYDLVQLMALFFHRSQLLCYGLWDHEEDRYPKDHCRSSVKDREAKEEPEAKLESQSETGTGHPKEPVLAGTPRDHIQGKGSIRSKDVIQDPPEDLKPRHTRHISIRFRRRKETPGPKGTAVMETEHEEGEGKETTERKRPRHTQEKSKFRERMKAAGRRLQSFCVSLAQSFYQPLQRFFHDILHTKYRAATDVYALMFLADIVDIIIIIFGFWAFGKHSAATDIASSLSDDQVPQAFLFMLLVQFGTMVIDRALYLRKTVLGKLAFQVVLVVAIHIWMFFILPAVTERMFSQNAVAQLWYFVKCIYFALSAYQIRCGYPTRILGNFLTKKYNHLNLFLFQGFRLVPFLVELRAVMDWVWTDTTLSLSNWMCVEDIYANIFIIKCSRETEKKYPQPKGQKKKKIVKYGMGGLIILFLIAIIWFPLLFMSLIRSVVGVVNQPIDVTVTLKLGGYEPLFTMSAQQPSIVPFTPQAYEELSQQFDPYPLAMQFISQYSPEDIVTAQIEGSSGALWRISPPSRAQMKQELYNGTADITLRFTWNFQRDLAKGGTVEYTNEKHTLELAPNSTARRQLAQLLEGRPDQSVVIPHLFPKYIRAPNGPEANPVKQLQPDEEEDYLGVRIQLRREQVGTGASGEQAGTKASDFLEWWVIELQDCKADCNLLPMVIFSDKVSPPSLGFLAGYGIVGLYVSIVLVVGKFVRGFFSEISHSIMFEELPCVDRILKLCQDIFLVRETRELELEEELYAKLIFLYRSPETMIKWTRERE
UniProt P63330: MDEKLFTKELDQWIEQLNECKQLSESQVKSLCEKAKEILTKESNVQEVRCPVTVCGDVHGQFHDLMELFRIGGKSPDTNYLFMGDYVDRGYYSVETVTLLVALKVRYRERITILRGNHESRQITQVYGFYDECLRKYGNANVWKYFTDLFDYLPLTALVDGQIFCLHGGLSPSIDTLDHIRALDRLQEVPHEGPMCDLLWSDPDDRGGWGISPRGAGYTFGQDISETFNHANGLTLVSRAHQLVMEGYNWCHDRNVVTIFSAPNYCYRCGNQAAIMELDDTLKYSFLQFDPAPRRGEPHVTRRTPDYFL

- binding: binds
Substance: protein phosphatase 2A (PP2A) (from UniProt P63330) (enzyme)

— PMC12507952
